For 1 compound, IC50 results are on record in US20260008770A1, “CBL-B INHIBITORS AND METHODS OF USES THEREOF” (Insilico Medicine IP Limited, priority 2022, published 2026).

The chains behind the UniProt entries cited, without tags or fusion partners.
UniProt Q13191, whole entry: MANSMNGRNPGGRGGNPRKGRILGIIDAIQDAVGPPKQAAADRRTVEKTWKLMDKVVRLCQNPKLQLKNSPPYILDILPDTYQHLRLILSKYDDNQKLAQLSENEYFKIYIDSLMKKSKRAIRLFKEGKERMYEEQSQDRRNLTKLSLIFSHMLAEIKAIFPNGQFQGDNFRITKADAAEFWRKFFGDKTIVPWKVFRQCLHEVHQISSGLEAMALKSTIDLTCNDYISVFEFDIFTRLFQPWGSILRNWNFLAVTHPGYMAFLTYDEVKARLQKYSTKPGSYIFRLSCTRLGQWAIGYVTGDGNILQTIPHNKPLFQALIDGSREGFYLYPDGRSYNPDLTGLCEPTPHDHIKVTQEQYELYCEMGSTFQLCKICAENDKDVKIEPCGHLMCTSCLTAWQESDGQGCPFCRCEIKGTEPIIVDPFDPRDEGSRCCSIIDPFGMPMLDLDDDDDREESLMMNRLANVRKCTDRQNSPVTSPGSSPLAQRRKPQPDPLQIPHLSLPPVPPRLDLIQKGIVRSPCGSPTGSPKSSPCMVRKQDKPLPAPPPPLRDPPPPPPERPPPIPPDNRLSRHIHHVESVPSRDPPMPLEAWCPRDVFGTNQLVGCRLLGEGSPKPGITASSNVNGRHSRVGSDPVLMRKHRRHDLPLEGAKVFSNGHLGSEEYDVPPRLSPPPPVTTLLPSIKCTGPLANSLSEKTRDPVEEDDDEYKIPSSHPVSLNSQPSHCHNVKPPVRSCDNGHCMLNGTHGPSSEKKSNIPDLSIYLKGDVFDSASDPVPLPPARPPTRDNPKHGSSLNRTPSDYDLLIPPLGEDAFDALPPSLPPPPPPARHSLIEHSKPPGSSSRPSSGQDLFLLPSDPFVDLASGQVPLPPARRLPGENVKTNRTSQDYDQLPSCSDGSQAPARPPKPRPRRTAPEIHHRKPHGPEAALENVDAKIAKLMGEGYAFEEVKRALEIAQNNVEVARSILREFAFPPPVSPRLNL

This assay deals with Cbl-b protein (CBL-B, GST-Tag) (Homo sapiens (Human), UniProt Q13191). Put plainly: HTRF based binding assay, affinity to Cbl-b protein. To be noted: fluorescence labeled Cbl-b binding probe. For orientation: TR-FRET usually uses a lanthanide donor and a delayed reading to cut background.

The match of structure and compound is tentative. Where only a bound is given, the exact number is not on record here.

As a reminder, the IC50 is the concentration needed to halve the response being measured. `CC1CC(c2ccnc(-n3cnc4c(C(F)(F)F)cc(CN5CCC[C@H](C)C5)cc4c3=O)c2)(c2nncn2CF)C1` (stereo partly shown): the IC50 was below 20 nM.
